According to ChEMBL document CHEMBL2384921, “An altered zinc-binding site confers resistance to a covalent inactivator of New Delhi metallo-beta-lactamase-1 (NDM-1) discovered by high-throughput screening” (Bioorg Med Chem, 2013):
Values joined by “and” are separate entries in the source; they are usually repeats but may differ in a detail not shown here. Equal values may be shown once.

Experiment: Inhibition of TEM-1 (unknown origin) using nitrocefin as substrate preincubated 10 mins followed by substrate addition measured after 20 mins relative to control

CCN(CC)C(=O)N[C@H]1C=C2c3cccc4[nH]cc(c34)C[C@H]2N(C)C1
Imax: 4% and 6%
